The target of the assay is T1, Myc-TRAIP wild type (UniProt Q9BWF2).
T1 sequence: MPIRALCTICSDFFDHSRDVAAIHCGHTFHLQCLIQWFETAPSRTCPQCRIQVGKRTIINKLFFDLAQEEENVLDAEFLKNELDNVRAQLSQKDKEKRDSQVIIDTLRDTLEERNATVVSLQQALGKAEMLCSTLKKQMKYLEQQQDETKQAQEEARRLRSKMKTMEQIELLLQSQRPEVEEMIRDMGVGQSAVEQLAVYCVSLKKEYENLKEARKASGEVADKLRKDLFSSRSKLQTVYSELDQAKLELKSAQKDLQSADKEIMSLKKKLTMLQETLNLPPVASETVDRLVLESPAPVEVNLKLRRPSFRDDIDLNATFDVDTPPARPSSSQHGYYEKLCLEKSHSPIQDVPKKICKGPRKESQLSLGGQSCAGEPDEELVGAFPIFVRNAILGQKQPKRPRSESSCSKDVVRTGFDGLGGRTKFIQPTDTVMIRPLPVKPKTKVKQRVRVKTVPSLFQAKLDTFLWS
Nature of the assay: co-IP; 293T cells co-transfected with Myc-TRAIP and GFP-ZNF212 WT, deletion mutants or NLS-fragments; 24 h; lysates with benzonase; IP with anti-Myc bead, immunoblot. Background: Immunoblotting shows a protein as a band on a membrane.

Results are given in words; binding and its absence hold for the method and conditions named. Binding seen in cells or lysates may run through a third protein. Binding can be weak; no strength is given. Tags and fused reporters may be left off the sequences shown.

Consider “GFP-ZNF212-ΔC (human) (domain or fragment)”, for which the binding entry is given as “binds”.
With “GFP-ZNF212-ΔN (human) (domain or fragment)”, the binding result is reported as “binds”.
Next, “GFP-ZNF212-ΔM (human) (domain or fragment)”: “binds”.

(Values after PMC9881131.)
